Laboratory results from the supplement of paper PMC12823440, “Inhibitors supercharge kinase turnover through native proteolytic circuits” (Nature, 2025).
Structures can show the parent of a compound that is named as a salt. This is one part of the list. The calls rarely recur for the same compound in another form.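 Kinases, fused to nanoluciferase, were expressed in K562 cells; luminescence was measured every 4 h from 2 to 18 h as percent of control (DMSO = 100%, positive control = 0%). A time point is decreased if signal falls significantly (2 sigma). Hits were called by the authors by a rule that is not shown; the count of time points alone does not decide it.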

By UniProt entry, the sequences of proteins in these tests, tags left out. Where a name states a change or a piece, a line headed by the entry shows the natural chain unless it says otherwise.
UniProt Q9Y616: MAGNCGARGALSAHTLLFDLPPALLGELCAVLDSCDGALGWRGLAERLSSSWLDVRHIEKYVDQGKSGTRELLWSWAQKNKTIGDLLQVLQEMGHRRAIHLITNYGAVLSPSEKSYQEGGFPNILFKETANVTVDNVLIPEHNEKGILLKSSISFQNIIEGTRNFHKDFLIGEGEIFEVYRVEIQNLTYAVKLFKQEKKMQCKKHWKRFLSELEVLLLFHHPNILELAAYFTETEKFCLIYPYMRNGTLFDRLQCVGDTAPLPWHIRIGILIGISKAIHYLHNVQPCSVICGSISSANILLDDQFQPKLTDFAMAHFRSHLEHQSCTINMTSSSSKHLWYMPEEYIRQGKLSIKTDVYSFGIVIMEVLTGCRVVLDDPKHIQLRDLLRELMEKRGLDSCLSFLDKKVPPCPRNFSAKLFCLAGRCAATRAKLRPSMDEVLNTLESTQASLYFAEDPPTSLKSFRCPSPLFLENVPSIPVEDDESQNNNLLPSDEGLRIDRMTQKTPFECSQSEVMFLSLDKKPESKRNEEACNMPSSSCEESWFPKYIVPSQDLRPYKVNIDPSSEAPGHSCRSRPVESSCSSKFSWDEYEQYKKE
UniProt P06239: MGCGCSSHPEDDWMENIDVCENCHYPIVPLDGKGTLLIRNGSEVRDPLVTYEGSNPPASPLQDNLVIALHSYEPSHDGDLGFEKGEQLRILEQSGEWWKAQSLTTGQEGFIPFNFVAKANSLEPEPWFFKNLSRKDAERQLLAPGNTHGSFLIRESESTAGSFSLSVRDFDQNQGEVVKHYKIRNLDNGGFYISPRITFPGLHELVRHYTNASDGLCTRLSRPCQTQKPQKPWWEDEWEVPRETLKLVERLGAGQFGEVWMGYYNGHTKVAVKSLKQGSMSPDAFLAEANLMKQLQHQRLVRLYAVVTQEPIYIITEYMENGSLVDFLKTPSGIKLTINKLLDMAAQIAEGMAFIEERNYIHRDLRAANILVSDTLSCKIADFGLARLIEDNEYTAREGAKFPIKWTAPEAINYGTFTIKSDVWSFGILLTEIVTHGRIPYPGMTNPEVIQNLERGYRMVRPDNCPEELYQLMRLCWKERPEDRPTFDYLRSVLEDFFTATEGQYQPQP
UniProt P53671: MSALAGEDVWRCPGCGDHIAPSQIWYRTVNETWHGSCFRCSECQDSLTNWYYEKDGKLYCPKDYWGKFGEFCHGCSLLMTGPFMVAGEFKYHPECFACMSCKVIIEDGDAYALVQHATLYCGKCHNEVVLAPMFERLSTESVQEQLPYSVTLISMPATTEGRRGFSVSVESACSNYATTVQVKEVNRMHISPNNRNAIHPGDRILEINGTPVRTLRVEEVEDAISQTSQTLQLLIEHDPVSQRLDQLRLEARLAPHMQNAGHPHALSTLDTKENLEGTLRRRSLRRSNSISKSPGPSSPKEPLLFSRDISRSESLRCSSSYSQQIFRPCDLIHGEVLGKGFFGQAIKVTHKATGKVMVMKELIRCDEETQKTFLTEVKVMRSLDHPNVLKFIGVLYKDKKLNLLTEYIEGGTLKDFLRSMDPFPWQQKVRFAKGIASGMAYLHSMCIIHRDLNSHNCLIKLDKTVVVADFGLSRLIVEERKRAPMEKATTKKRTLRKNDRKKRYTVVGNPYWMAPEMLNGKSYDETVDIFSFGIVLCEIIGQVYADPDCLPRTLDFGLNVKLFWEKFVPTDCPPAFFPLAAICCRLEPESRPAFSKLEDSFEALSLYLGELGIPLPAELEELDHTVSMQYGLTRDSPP
UniProt P07948: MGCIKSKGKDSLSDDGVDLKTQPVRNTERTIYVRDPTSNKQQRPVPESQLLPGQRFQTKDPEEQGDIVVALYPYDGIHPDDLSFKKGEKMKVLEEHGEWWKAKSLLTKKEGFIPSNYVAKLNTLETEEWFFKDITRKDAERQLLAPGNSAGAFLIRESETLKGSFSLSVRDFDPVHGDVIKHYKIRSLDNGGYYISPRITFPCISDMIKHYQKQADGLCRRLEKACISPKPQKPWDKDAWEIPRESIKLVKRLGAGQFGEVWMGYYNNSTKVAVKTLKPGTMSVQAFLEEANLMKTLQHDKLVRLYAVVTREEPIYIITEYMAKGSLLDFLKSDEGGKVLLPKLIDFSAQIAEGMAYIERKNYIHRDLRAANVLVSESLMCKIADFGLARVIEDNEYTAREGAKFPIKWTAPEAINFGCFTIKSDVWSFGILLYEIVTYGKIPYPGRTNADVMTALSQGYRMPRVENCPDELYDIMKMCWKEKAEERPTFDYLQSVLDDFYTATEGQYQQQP
UniProt P28482, whole entry: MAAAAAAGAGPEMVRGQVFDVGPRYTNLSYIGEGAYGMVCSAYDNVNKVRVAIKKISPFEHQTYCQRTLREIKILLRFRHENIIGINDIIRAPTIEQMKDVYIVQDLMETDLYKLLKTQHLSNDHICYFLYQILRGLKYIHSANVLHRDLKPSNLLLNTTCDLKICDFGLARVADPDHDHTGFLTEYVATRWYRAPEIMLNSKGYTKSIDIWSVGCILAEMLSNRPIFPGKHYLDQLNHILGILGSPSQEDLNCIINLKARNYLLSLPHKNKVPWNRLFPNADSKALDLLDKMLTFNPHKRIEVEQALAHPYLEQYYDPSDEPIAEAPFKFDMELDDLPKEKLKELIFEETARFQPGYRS
UniProt P31152, whole entry: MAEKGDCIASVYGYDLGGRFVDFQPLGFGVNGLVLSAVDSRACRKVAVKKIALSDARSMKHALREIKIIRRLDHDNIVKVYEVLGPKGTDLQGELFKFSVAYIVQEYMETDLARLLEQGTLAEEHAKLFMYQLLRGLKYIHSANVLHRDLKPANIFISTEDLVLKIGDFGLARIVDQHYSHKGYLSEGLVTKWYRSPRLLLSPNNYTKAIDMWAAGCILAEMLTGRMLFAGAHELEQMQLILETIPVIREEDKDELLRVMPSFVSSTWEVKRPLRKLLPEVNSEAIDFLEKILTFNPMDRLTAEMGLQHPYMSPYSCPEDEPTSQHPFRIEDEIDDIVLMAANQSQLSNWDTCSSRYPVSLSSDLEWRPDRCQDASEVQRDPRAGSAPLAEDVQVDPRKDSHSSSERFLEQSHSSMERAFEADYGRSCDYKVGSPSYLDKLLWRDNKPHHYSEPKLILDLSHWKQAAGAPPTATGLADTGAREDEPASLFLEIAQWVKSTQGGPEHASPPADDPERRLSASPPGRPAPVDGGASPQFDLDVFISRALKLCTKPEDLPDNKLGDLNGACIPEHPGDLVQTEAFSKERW
UniProt P49137, whole entry, looked up: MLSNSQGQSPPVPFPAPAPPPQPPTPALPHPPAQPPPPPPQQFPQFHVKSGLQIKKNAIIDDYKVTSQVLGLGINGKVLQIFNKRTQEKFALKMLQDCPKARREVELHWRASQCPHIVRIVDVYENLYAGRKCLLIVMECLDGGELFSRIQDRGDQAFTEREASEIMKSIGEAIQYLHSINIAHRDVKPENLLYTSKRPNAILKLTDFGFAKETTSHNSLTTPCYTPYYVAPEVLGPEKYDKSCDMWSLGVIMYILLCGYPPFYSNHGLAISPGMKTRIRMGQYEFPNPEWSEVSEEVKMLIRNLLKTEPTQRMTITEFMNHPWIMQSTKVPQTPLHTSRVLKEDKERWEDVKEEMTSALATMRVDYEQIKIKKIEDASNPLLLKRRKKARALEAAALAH
UniProt Q9BUB5: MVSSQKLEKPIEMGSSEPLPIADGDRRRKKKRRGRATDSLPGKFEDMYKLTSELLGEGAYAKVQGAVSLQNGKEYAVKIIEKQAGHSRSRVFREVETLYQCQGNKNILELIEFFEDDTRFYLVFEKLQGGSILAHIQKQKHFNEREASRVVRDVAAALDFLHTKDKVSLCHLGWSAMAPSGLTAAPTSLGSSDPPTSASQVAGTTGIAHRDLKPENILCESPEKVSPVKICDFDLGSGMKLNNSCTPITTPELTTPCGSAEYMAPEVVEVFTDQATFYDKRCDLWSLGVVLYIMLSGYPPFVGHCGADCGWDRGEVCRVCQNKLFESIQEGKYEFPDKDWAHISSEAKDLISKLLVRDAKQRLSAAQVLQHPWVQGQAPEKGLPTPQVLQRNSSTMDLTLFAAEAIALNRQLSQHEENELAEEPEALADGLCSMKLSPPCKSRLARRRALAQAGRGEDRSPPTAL
UniProt Q16620, whole entry, looked up: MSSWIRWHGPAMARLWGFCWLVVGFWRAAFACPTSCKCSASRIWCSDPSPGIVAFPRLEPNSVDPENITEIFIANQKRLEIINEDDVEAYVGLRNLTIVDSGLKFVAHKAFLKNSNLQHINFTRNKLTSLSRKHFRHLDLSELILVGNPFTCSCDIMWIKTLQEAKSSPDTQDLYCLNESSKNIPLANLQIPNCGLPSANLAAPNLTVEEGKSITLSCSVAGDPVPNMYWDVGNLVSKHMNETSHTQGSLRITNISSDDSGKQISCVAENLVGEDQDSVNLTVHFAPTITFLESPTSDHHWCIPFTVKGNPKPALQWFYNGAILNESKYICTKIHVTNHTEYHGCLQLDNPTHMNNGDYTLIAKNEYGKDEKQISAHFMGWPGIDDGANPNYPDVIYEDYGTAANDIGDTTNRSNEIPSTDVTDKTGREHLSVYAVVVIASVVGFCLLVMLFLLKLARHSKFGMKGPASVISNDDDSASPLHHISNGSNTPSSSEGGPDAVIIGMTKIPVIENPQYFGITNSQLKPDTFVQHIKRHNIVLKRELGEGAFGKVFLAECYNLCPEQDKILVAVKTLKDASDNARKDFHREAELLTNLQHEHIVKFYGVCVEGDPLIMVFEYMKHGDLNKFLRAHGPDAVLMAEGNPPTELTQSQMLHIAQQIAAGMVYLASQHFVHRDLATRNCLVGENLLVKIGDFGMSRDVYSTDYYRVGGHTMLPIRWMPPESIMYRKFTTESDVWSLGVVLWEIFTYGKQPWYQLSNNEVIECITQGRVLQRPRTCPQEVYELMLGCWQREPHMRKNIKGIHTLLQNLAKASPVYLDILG
UniProt O96013: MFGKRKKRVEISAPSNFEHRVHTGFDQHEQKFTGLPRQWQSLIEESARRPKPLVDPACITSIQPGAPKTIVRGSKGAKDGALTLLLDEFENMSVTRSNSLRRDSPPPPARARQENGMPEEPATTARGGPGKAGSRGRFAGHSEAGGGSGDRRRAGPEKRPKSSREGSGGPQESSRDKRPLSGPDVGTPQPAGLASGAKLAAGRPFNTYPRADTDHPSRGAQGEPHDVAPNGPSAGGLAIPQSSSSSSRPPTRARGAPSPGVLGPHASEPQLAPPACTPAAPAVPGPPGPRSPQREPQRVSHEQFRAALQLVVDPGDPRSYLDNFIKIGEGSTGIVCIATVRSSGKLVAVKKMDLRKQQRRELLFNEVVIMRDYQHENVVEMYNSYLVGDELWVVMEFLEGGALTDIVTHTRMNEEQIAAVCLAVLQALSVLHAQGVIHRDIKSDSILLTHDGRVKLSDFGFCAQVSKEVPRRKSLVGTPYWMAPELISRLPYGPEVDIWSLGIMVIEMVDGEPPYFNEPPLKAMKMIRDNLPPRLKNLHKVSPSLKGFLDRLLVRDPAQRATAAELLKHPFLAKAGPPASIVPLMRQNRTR
UniProt P09619, whole entry: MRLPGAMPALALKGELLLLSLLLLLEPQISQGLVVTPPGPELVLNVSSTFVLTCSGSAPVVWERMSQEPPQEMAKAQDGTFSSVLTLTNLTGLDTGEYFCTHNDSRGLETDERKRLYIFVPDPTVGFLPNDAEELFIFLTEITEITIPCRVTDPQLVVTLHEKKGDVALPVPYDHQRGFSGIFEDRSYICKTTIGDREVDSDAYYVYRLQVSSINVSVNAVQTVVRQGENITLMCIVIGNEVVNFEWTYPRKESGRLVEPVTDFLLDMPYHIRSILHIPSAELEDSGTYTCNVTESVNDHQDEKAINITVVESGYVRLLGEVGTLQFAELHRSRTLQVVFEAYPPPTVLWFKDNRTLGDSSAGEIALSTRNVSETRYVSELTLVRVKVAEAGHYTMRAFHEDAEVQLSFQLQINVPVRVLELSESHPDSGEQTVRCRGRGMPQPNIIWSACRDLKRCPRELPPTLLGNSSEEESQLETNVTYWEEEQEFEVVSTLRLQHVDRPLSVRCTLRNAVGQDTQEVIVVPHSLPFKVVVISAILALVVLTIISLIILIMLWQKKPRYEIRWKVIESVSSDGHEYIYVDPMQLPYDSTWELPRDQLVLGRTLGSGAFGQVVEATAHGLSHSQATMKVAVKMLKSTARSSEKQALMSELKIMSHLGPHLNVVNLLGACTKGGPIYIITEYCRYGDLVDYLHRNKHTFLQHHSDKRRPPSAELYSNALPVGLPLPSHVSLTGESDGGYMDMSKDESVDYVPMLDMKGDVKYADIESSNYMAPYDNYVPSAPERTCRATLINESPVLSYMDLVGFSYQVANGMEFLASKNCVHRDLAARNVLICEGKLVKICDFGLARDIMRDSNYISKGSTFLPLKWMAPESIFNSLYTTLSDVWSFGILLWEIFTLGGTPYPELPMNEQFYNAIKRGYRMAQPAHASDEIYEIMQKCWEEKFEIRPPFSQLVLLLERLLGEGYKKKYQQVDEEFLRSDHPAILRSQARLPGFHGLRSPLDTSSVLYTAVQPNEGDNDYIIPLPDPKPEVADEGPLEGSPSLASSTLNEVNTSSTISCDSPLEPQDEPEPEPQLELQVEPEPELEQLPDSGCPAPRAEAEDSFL

What was measured:
Assay in all cases: kinase-Nluc reporter destabilization hit call (1 = scored as downregulated) (binary); higher = compound decreases kinase abundance
Conditions in all cases: K562; 2-18 h
IRAK3 = IRAK3 (UniProt Q9Y616)
JAK1 = JAK1 (UniProt P23458)
LCK = LCK (UniProt P06239)
LIMK1 = LIMK1 (UniProt P53667)
LIMK2 = LIMK2 (UniProt P53671)
LMTK2 = LMTK2 (UniProt Q8IWU2)
LYN = LYN (UniProt P07948)
MAP2K1 = MAP2K1 (UniProt Q02750)
MAP2K2 = MAP2K2 (UniProt P36507)
MAP4K2 = MAP4K2 (UniProt Q12851)
MAPK1 = MAPK1 (UniProt P28482)
MAPK4 = MAPK4 (UniProt P31152)
MAPKAPK2 = MAPKAPK2 (UniProt P49137)
MKNK1 = MKNK1 (UniProt Q9BUB5)
NTRK2 = NTRK2 (UniProt Q16620)
NTRK3 = NTRK3 (UniProt Q16288)
PAK4 = PAK4 (UniProt O96013)
PBK = PBK (UniProt Q96KB5)
PDGFRB = PDGFRB (UniProt P09619)
PDK1 = PDK1 (UniProt Q15118)

Measured: kinase-Nluc reporter destabilization hit call

N[C@H](Cc1c[nH]c2ccccc12)C(=O)N/N=C/c1ccc2nccnc2c1 [Rhosin (hydrochloride)] (10 µM)
inactive: IRAK3 = 0 | JAK1 = 0 | LCK 0 | LIMK1 = 0 | LIMK2 = 0 | LMTK2 = 0 | LYN 0 | MAP2K1 = 0 | MAP2K2 = 0 | MAP4K2 = 0 | MAPK1 = 0 | MAPK4 = 0 | MAPKAPK2 = 0 | MKNK1 = 0 | NTRK2 = 0 | NTRK3 = 0 | PAK4 = 0 | PBK 0 | PDGFRB 0 | PDK1 = 0

COc1cc(F)c(F)c(Nc2ccc(I)cc2F)c1NS(=O)(=O)C1(C[C@H](O)CO)CC1 [Refametinib] (10 µM)
inactive: IRAK3 = 0 | JAK1 = 0 | LCK 0 | LIMK1 = 0 | LIMK2 = 0 | LMTK2 = 0 | LYN 0 | MAP2K1 = 0 | MAP2K2 = 0 | MAP4K2 = 0 | MAPK1 = 0 | MAPK4 = 0 | MAPKAPK2 = 0 | MKNK1 = 0 | NTRK2 = 0 | NTRK3 = 0 | PAK4 = 0 | PBK 0 | PDGFRB 0 | PDK1 = 0

C[C@@H](c1ccc2nccn2c1)n1nnc2ncc(-c3cnn(C)c3)nc21 [Savolitinib] (10 µM)
inactive: IRAK3 = 0 | JAK1 = 0 | LCK 0 | LIMK1 = 0 | LIMK2 = 0 | LMTK2 = 0 | LYN 0 | MAP2K1 = 0 | MAP2K2 = 0 | MAP4K2 = 0 | MAPK1 = 0 | MAPK4 = 0 | MAPKAPK2 = 0 | MKNK1 = 0 | NTRK2 = 0 | NTRK3 = 0 | PAK4 = 0 | PBK 0 | PDGFRB 0 | PDK1 = 0

CNC(=O)Nc1ccc(-c2cc(-c3ccnc(Nc4ccc(C)c(S(=O)(=O)N(C)C)c4)n3)ccn2)cc1 [hSMG-1 inhibitor 11e] (2.5 µM)
inactive: IRAK3 = 0 | JAK1 = 0 | LCK 0 | LIMK1 = 0 | LIMK2 = 0 | LMTK2 = 0 | LYN 0 | MAP2K1 = 0 | MAP2K2 = 0 | MAP4K2 = 0 | MAPK1 = 0 | MAPK4 = 0 | MAPKAPK2 = 0 | MKNK1 = 0 | NTRK2 = 0 | NTRK3 = 0 | PAK4 = 0 | PBK 0 | PDGFRB 0 | PDK1 = 0

Arranged by length of the SMILES (smallest number first): three of the compounds above
N[C@H](Cc1c[nH]c2ccccc12)C(=O)N/N=C/c1ccc2nccnc2c1 [Rhosin (hydrochloride)] (10 µM)
inactive: IRAK3 = 0 | JAK1 = 0 | LCK 0 | LIMK1 = 0 | LIMK2 = 0 | LMTK2 = 0 | LYN 0 | MAP2K1 = 0 | MAP2K2 = 0 | MAP4K2 = 0 | MAPK1 = 0 | MAPK4 = 0 | MAPKAPK2 = 0 | MKNK1 = 0 | NTRK2 = 0 | NTRK3 = 0 | PAK4 = 0 | PBK 0 | PDGFRB 0 | PDK1 = 0

COc1cc(F)c(F)c(Nc2ccc(I)cc2F)c1NS(=O)(=O)C1(C[C@H](O)CO)CC1 [Refametinib] (10 µM)
inactive: IRAK3 = 0 | JAK1 = 0 | LCK 0 | LIMK1 = 0 | LIMK2 = 0 | LMTK2 = 0 | LYN 0 | MAP2K1 = 0 | MAP2K2 = 0 | MAP4K2 = 0 | MAPK1 = 0 | MAPK4 = 0 | MAPKAPK2 = 0 | MKNK1 = 0 | NTRK2 = 0 | NTRK3 = 0 | PAK4 = 0 | PBK 0 | PDGFRB 0 | PDK1 = 0

CNC(=O)Nc1ccc(-c2cc(-c3ccnc(Nc4ccc(C)c(S(=O)(=O)N(C)C)c4)n3)ccn2)cc1 [hSMG-1 inhibitor 11e] (2.5 µM)
inactive: IRAK3 = 0 | JAK1 = 0 | LCK 0 | LIMK1 = 0 | LIMK2 = 0 | LMTK2 = 0 | LYN 0 | MAP2K1 = 0 | MAP2K2 = 0 | MAP4K2 = 0 | MAPK1 = 0 | MAPK4 = 0 | MAPKAPK2 = 0 | MKNK1 = 0 | NTRK2 = 0 | NTRK3 = 0 | PAK4 = 0 | PBK 0 | PDGFRB 0 | PDK1 = 0

(further entries)

Cc1ccc(-c2c(C(=O)CF)n(CCCO)c3ncnc(N)c23)cc1 (10 µM)
inactive: IRAK3 = 0 | JAK1 = 0 | LCK 0 | LIMK1 = 0 | LIMK2 = 0 | LMTK2 = 0 | LYN 0 | MAP2K1 = 0 | MAP2K2 = 0 | MAP4K2 = 0 | MAPK1 = 0 | MAPK4 = 0 | MAPKAPK2 = 0 | MKNK1 = 0 | NTRK2 = 0 | NTRK3 = 0 | PAK4 = 0 | PBK 0 | PDGFRB 0 | PDK1 = 0

NCCN1CCN(C/C=C/C(=O)N2CCC[C@@H](n3nc(-c4ccc(Oc5ccccc5)cc4)c4c(N)ncnc43)C2)CC1 [Ibrutinib-MPEA] (10 µM)
inactive: IRAK3 = 0 | JAK1 = 0 | LCK 0 | LIMK1 = 0 | LIMK2 = 0 | LMTK2 = 0 | LYN 0 | MAP2K1 = 0 | MAP2K2 = 0 | MAP4K2 = 0 | MAPK1 = 0 | MAPK4 = 0 | MAPKAPK2 = 0 | MKNK1 = 0 | NTRK2 = 0 | NTRK3 = 0 | PAK4 = 0 | PBK 0 | PDGFRB 0 | PDK1 = 0

C[C@@H]1C(=O)O[C@H](C)[C@H]1C[C@@H](O)[C@](C)(O)[C@H]1CC[C@@]2(O)C3=CC(=O)[C@@H]4C[C@@H](O)[C@@H](O)C[C@]4(C)[C@H]3CC[C@]12C [Cyasterone] (10 µM)
inactive: IRAK3 = 0 | JAK1 = 0 | LCK 0 | LIMK1 = 0 | LIMK2 = 0 | LMTK2 = 0 | LYN 0 | MAP2K1 = 0 | MAP2K2 = 0 | MAP4K2 = 0 | MAPK1 = 0 | MAPK4 = 0 | MAPKAPK2 = 0 | MKNK1 = 0 | NTRK2 = 0 | NTRK3 = 0 | PAK4 = 0 | PBK 0 | PDGFRB 0 | PDK1 = 0

CC/C=C\C/C=C\C/C=C\CCCCCCCC(=O)O [α-Linolenic acid] (10 µM)
inactive: IRAK3 = 0 | JAK1 = 0 | LCK 0 | LIMK1 = 0 | LIMK2 = 0 | LMTK2 = 0 | LYN 0 | MAP2K1 = 0 | MAP2K2 = 0 | MAP4K2 = 0 | MAPK1 = 0 | MAPK4 = 0 | MAPKAPK2 = 0 | MKNK1 = 0 | NTRK2 = 0 | NTRK3 = 0 | PAK4 = 0 | PBK 0 | PDGFRB 0 | PDK1 = 0

Cc1ccc(S(=O)(=O)Nc2ccccc2C=Nc2ccccc2NS(=O)(=O)c2ccc(C)cc2)cc1 (10 µM)
inactive: IRAK3 = 0 | JAK1 = 0 | LCK 0 | LIMK1 = 0 | LIMK2 = 0 | LMTK2 = 0 | LYN 0 | MAP2K1 = 0 | MAP2K2 = 0 | MAP4K2 = 0 | MAPK1 = 0 | MAPK4 = 0 | MAPKAPK2 = 0 | MKNK1 = 0 | NTRK2 = 0 | NTRK3 = 0 | PAK4 = 0 | PBK 0 | PDGFRB 0 | PDK1 = 0

CC(C)c1cnc(-c2cc(Cl)ccc2F)cc1Nc1ccncc1C(=O)NC(CO)CO (2.5 µM)
inactive: IRAK3 = 0 | JAK1 = 0 | LCK 0 | LIMK1 = 0 | LIMK2 = 0 | LMTK2 = 0 | LYN 0 | MAP2K1 = 0 | MAP2K2 = 0 | MAP4K2 = 0 | MAPK1 = 0 | MAPK4 = 0 | MAPKAPK2 = 0 | MKNK1 = 0 | NTRK2 = 0 | NTRK3 = 0 | PAK4 = 0 | PBK 0 | PDGFRB 0 | PDK1 = 0

C=C1C(=O)O[C@@H]2C[C@@]3(C)CCC[C@H](C)C3=C[C@H]12 [Alantolactone] (10 µM)
inactive: IRAK3 = 0 | JAK1 = 0 | LCK 0 | LIMK1 = 0 | LIMK2 = 0 | LMTK2 = 0 | LYN 0 | MAP2K1 = 0 | MAP2K2 = 0 | MAP4K2 = 0 | MAPK1 = 0 | MAPK4 = 0 | MAPKAPK2 = 0 | MKNK1 = 0 | NTRK2 = 0 | NTRK3 = 0 | PAK4 = 0 | PBK 0 | PDGFRB 0 | PDK1 = 0
